# Measurements reported in PubChem BioAssay AID720505 (Drosophila RNAi Screening Center, 2013)
# Purpose: 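Genes needed for store-operated calcium entry in fly cells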 (primary screen)
# Cell system: Drosophila S2R+ cells
# Reagent: long dsRNA against Drosophila genes
# Conditions: thapsigargin (2 µM) in calcium-free buffer to empty internal stores, then 2 mM calcium added back
# Measured: 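Fluo-4 signal in 384-well plates read on a FLIPR after thapsigargin (2 µM, calcium-free) store depletion and 2 mM calcium add-back; unnormalised mean endpoint per well; screen run twice, selected wells retested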
# Scale: calcium signal and retest calcium signal: higher = more calcium entry after store depletion
# Call rule: 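About 1500 genes called as lowering calcium entry, by varying amounts, judged against per-plate control wells with STIM1 as positive and Rho1 as negative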
# Meaning of the calls: active = called as lowering calcium entry; inactive = not called
# The screen tested about 20,000 reagents; below is an unselected part of those with a known target gene and a result. In the full data, about 2,100 (10%) were called active. 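Raw plate signals without normalisation; calls rest on control-based scores that were not deposited; replicate 2 separates called from uncalled poorly.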 A number with no mark means an inactive call. Names joined by + are all predicted targets of the reagent. Reagent sequences are not shown. The record does not give: the amount of reagent, the time to read-out.
Gene,amplicon,"calcium signal, replicate 1","calcium signal, replicate 2","retest calcium signal, replicate 1","retest calcium signal, replicate 2"
CG4744,DRSC06887,157,129,,
sdt (stardust),DRSC17860,193,143,,
sdt (stardust),DRSC17861,274,157,,
sdt (stardust),DRSC18022,205,140,,
sdt (stardust),DRSC18025,325,169,,
sdt (stardust),DRSC18026,197 (active),130,,
sdt (stardust),DRSC18027,285,145,,
sdt (stardust),DRSC18108,275,106,,
CG31680,DRSC21878,69.4,194,,
CG13678,DRSC10036,101,96.4,,
CG9717,DRSC16543,192,223,,
Cpr78Cb (Cuticular protein 78Cb),DRSC11847,72.9,163,,
Coop (Corepressor of Pangolin),DRSC06604,145,114,,
CG11608,DRSC14334,133,86.5,,
Oseg5 (Outer segment 5),DRSC03209,173,124,,
CG17834,DRSC02637,54 (active),78.2,,
CG31784,DRSC01574,75.8,177,,
Acp98AB (Accessory gland protein 98AB),DRSC21837,60.6 (active),99.9,,
CG9014,DRSC01979,126,98.7,,
mRpL10 (mitochondrial ribosomal protein L10),DRSC00312,111,110,,
CG5478,DRSC15814,144,163,,
CG2991,DRSC00559,93.1,189,,
ninaB (neither inactivation nor afterpotential B),DRSC16807,133,176,,
Spn43Ad (Serpin 43Ad),DRSC06770,142,182,,
Unc-115b + p24-2,DRSC16492,119,96.6,,
Spn28F (Serpin 28F),DRSC03615,158,147,,
CG42699,DRSC18076,128,109,,
CG42699,DRSC18341,208,115,,

Reprinted from above for reference:
Gene,amplicon,"calcium signal, replicate 1","calcium signal, replicate 2","retest calcium signal, replicate 1","retest calcium signal, replicate 2"
Cpr78Cb (Cuticular protein 78Cb),DRSC11847,72.9,163,,
Coop (Corepressor of Pangolin),DRSC06604,145,114,,
CG11608,DRSC14334,133,86.5,,
Oseg5 (Outer segment 5),DRSC03209,173,124,,
CG17834,DRSC02637,54 (active),78.2,,
CG31784,DRSC01574,75.8,177,,

More results follow.
Gene,amplicon,"calcium signal, replicate 1","calcium signal, replicate 2","retest calcium signal, replicate 1","retest calcium signal, replicate 2"
ttk (tramtrack),DRSC17091,55.7 (active),105,,
CecA2 (Cecropin A2),DRSC16604,111,77.5,,
Hr4 (Hormone receptor 4),DRSC18495,3669,115,171,134
Hr4 (Hormone receptor 4),DRSC18599,135,155,,
Hr4 (Hormone receptor 4),DRSC22269,107 (active),77.6,,
Hr4 (Hormone receptor 4),DRSC22677,76.5,126,,
Hr4 (Hormone receptor 4),DRSC23080,107,112,,
Hr4 (Hormone receptor 4),DRSC23251,139,160,,
HDAC1 (Histone deacetylase 1),DRSC08696,58.6 (active),107,,
mib2 (mind bomb 2),DRSC02623,119,133,,
CG7213,DRSC10787,113,66.4,,
sp3 (spermathreecae),DRSC16354,157,92.7,,
Adh + Adhr,DRSC01862,79.3,168,,
Adh + Adhr,DRSC01863,96,124,,
CG8043,DRSC16368,154,173,,
Ndg (Nidogen),DRSC06223,117,83.1,,
Octbeta3R (Octopamine beta3 receptor),DRSC15351,152,98.5,,
Octbeta3R (Octopamine beta3 receptor),DRSC16191,174,111,,
Octbeta3R (Octopamine beta3 receptor),DRSC21853,85.4,168,,
Octbeta3R (Octopamine beta3 receptor),DRSC21902,117,320,,
Octbeta3R (Octopamine beta3 receptor),DRSC22350,76.2 (active),210,,
beta-Spec (beta Spectrin),DRSC20311,85.1,131,,
Spn42De (Serpin 42De),DRSC05011,93.7,108,,
CG14340,DRSC00370,184,133,,
CG30283,DRSC04071,138,129,,
out (outsiders),DRSC19347,170,149,,
Akap200 (A kinase anchor protein 200),DRSC01864,120,271,,
fh (frataxin),DRSC18430,65.8 (active),69.3,,
Rad1 + Sws1,DRSC00778,156,192,,
babos,DRSC03923,111,7348,,
babos,DRSC04397,186,90.1,,
ctrip (circadian trip),DRSC12242,109,95.3,,
ctrip (circadian trip),DRSC12287,108,126,,
ctrip (circadian trip),DRSC22449,113,182,,
spn-D (spindle D),DRSC22641,137,172,,
mtDNA-helicase (mitochondrial DNA helicase),DRSC02912,169,146,,
sqa (spaghetti-squash activator),DRSC06693,129,134,,
sqa (spaghetti-squash activator),DRSC21635,204,123,,
CG5808,DRSC14124,159,225,,
CG10431,DRSC02055,122,92.2,,
phu (phurba tashi),DRSC16390,107,102,,
CG3306,DRSC10357,56.6 (active),79,,
CG8042,DRSC09676,54.7 (active),75.9,,
Pvf2 (PDGF- and VEGF-related factor 2),DRSC00968,120,130,,
Pvf2 (PDGF- and VEGF-related factor 2),DRSC02283,140,91.8,,
TP53INP (Tumor protein p53 inducible nuclear protein),DRSC08178,104,118,175,160
TP53INP (Tumor protein p53 inducible nuclear protein),DRSC22552,68.6,128,,
Ald1 (Aldolase 1),DRSC14109,79.5,78.2,,
azot (ahuizotl),DRSC06051,71,111,,
Nipped-B,DRSC07815,85.5,141,,
CG14406,DRSC19592,96.9,145,,
Obp8a (Odorant-binding protein 8a),DRSC17868,89.3,86.3,,
Cpr72Eb (Cuticular protein 72Eb),DRSC09870,86.2,109,,
Or92a (Odorant receptor 92a),DRSC16771,179,129,,
chm (chameau),DRSC03341,141,174,,
